Data taken from US8802240B2, “Uses of formulations of thyroid hormone analogs and nanoparticulate forms thereof to increase chemosensitivity and radiosensitivity in tumor or cancer cells” (Nanopharmaceuticals LLC, priority 2011, dated 2014).
Some entries share one result that the patent states for a list of compounds.

Test system: human medullary carcinoma of the thyroid (MTC) xenograft
Experiment: MTC xenograft in nude mice
Format: in vivo
Settings: i.p. daily
Text: Water and food were provided ad libitum.

## O=C(O)Cc1cc(I)c(Oc2cc(I)c(O)c(I)c2)c(I)c1 [Tetrac, tetraiodothyroacetic acid]
Tetrac 10 mg/kg or Tetrac NP 1 mg/kg Tetrac equivalent, untreated 450-500 mm^3
  tumor size over 21 days: < 100 mm^3
Tetrac 10 mg/kg or Tetrac NP 1 mg/kg
  time to detected reduction in tumor size after initiation of treatment: ≤ 2 days
